Measurements reported in PubChem BioAssay AID743121 (NCATS, 2013)
Aim: 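Genes whose silencing strengthens cell killing by camptothecin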 (primary screen). System: MDA-MB-231 cells, a human breast cancer line. Reagents: single siRNA against human genes, 20 nM siRNA (0.8 pmol per well). Duration: 120 h (drug added 48 h after transfection, read 72 h later). Treatment: camptothecin 20 nM (about EC30) for 72 h; vehicle 0.1% DMSO in parallel plates. Detection: 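CellTiter-Glo ATP signal, scaled to control siRNA as percent viability; sensitisation given as log2 of untreated divided by camptothecin-treated viability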. Direction: log2 vehicle/camptothecin viability: higher = stronger sensitisation to camptothecin. Active means: 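Active genes have an RSA gene-level p-value below 0.001, computed from the ratios of their separate siRNAs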.
Shown is a random part of about 26,000 deposited reagents. 167 of all reagents (0.63%) count as active. 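Calls are per gene from RSA p-values that are not deposited; an individual active-marked siRNA can sensitise only weakly.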 Not all columns of the deposit are shown.

log2 vehicle/camptothecin viability, by gene and reagent
PCM1 (GeneID 5108): SID164379697 -0.383 inactive; SID164379698 0.0687 inactive; SID164379700 -0.244 inactive; SID164379703 0.0608 inactive
ARSI (GeneID 340075): SID164658100 -0.516 inactive; SID164658101 -0.0941 inactive; SID164658102 0.302 inactive; SID164658103 -0.291 inactive
KCNJ13 (GeneID 3769): SID164372498 -0.301 inactive; SID164372500 -0.381 inactive; SID164372501 0.367 inactive; SID164372504 -0.119 inactive
LGI1 (GeneID 9211): SID164402423 -0.0947 inactive; SID164402426 -0.179 inactive; SID164402428 -0.35 inactive; SID164402431 0.149 inactive
OR2J2 (GeneID 26707): SID164460943 -0.358 inactive; SID164460944 0.145 inactive; SID164460945 0.0584 inactive; SID164460950 0.234 inactive
FBLN7 (GeneID 129804): SID164569157 -0.111 inactive; SID164569160 -0.564 inactive; SID164569162 -0.333 inactive; SID164569163 0.221 inactive
TSSK2 (GeneID 23617): SID164449157 0.122 inactive; SID164449158 -0.214 inactive; SID164449160 -0.126 inactive; SID164449162 -0.245 inactive
MAPT (GeneID 4137): SID164374826 -0.133 inactive; SID164374827 -0.289 inactive; SID164374829 -0.339 inactive; SID164374830 -0.214 inactive
FGFR1OP2 (GeneID 26127): SID164458935 0.102 inactive; SID164458937 -0.691 inactive; SID164458938 0.176 inactive; SID164458939 -0.491 inactive
RGS13 (GeneID 6003): SID164385338 -0.271 inactive; SID164385339 0.261 inactive; SID164385342 -0.101 inactive
APC (GeneID 324): SID164353598 0.0919 inactive; SID164353599 -0.372 inactive; SID164353602 -0.338 inactive; SID164353603 -0.166 inactive
GK2 (GeneID 2712): SID164366641 0.0202 inactive; SID164366642 -0.0295 inactive; SID164366643 0.0874 inactive; SID164366644 -0.342 inactive
EVL (GeneID 51466): SID164474050 -0.109 inactive; SID164474052 -0.291 inactive; SID164474053 0.0132 inactive; SID164474055 0.28 inactive
TLL2 (GeneID 7093): SID164391960 -0.0949 inactive; SID164391962 -0.0342 inactive; SID164391963 -0.0793 inactive; SID164391964 0.0964 inactive
PSMB8 (GeneID 5696): SID164383385 0.226 inactive; SID164383386 0.00916 inactive; SID164383387 -0.236 inactive; SID164383389 -0.198 inactive
ABCG1 (GeneID 9619): SID164404899 -0.872 inactive; SID164404901 -0.142 inactive; SID164404903 -0.211 inactive; SID164404904 -0.406 inactive
TWIST1 (GeneID 7291): SID164393020 -0.0117 inactive; SID164393021 0.323 inactive; SID164393022 0.082 inactive; SID164393024 0.751 inactive
SERPINA10 (GeneID 51156): SID164472286 -0.178 inactive; SID164472287 -0.591 inactive; SID164472289 -0.271 inactive

Entries listed so far whose target name starts with S or s:
log2 vehicle/camptothecin viability, by gene and reagent
SERPINA10 (GeneID 51156): SID164472286 -0.178 inactive; SID164472287 -0.591 inactive; SID164472289 -0.271 inactive
